Laboratory results taken from PubChem BioAssay AID248 (DTP/NCI, 2004).
The list does not hold the whole screen: it is rich in T/C values a quarter to a half above the control, in often repeated tests (any T/C) and in doses without a T/C. Further doses and runs are listed elsewhere. T/C: endpoint of the treated group in % of that of the vehicle group. Some doses have a count of surviving animals in place of a T/C: the source files T/C as zero there, which appears to mark a toxic dose or a test without result, not a measured value. Some doses without a T/C left all or most animals alive at the check, yet need not have been tolerated: the source hardly ever lists a survival T/C far under the control, and the zero likely stands for such cases as well. Counts of survivors are from the toxicity check (mostly the fifth day) where no day follows; animals may have died later. Schedule codes are those of the source, read here as Q, the interval in days (D) or hours (H), X, the number of doses. Some schedule codes hold Z or #, which are not explained here. Some entries hold several experiments; the results are listed from low to high. For survival time, the PubChem record calls one and a half times the control and up active, and a quarter to a half above the control has no call in these data; cut-offs in other NCI protocols can differ. Some T/C values are followed by the survivors on the day toxicity was checked, most often the fifth; where none is given, no animal had died by that day.

Test system: L1210 leukemia ip in BDF1 mice, survival T/C
Experiment: NCI In Vivo Anticancer Drug Screen. Data for tumor model L1210 Leukemia (intraperitoneal) in B6D2F1 (BDF1) mice
Conditions: T/C endpoint: mean survival time, higher T/C = longer survival
[1] = dose: 400.0 mg/kg/injection, schedule: Q01DX001 (ip), vehicle: saline
[2] = dose: 100.0 mg/kg/injection, schedule: Q01DX001 (ip), vehicle: saline
[3] = dose: 200.0 mg/kg/injection, schedule: Q01DX001 (ip), vehicle: saline
[4] = dose: 400.0 mg/kg/injection, schedule: Q04DX003 (ip), vehicle: Klucel (hydroxypropylcellulose) (HPC)
[5] = dose: 300.0 mg/kg/injection, schedule: Q01DX001 (ip), vehicle: carboxymethylcellulose (CMC)
[6] = dose: 75.0 mg/kg/injection, schedule: Q01DX001 (ip), vehicle: saline
[7] = dose: 150.0 mg/kg/injection, schedule: Q01DX001 (ip), vehicle: saline
[8] = dose: 300.0 mg/kg/injection, schedule: Q01DX001 (ip), vehicle: saline
[9] = dose: 400.0 mg/kg/injection, schedule: Q01DX009 (ip), vehicle: Klucel (hydroxypropylcellulose) (HPC)
[10] = dose: 100.0 mg/kg/injection, schedule: Q01DX009 (ip), vehicle: Klucel (hydroxypropylcellulose) (HPC)

`CCC(CO)(CO)C(=[N-])c1ccccc1O.CCC(CO)(CO)N=Cc1ccccc1O.[Co]` was tested, and the survivor count [1] was 0 of 6.
In the case of `CCOC(=O)c1cnc(SC)nc1Nc1ccccc1[N+](=O)[O-]`, the survivor count (dose: 100.0 mg/kg/injection, schedule: Q01DX001 (ip), vehicle: Klucel (hydroxypropylcellulose) (HPC)) is reported as 6 of 6.
In the case of `COc1ccc(C(O)(CNCc2ccccc2)c2ccccc2)cc1` (configuration not stated), the survivor count (dose: 200.0 mg/kg/injection, schedule: Q01DX001 (ip), vehicle: saline with Tween-80) is reported as 3 of 6 and the survivor count (dose: 400.0 mg/kg/injection, schedule: Q01DX001 (ip), vehicle: saline with Tween-80) is reported as 1 of 6.
For `[B-][NH2+]C(C)(C)C`, the survivor count [2] was 0 of 4, the survivor count [3] was 0 of 4 and the survivor count [1] was 0 of 4.
In the case of `COc1cc(C(=O)NC(=S)NCc2ccncc2)cc(OC)c1OC`, the survivor count (dose: 400.0 mg/kg/injection, schedule: Q04DX002 (ip), vehicle: Klucel (hydroxypropylcellulose) (HPC)) is reported as 0 of 3.
With `Clc1c(CBr)ccc(CBr)c1Cl` the survivor count (dose: 100.0 mg/kg/injection, schedule: Q04DX003 (ip), vehicle: Klucel (hydroxypropylcellulose) (HPC)) was 0 of 6, the survivor count (dose: 200.0 mg/kg/injection, schedule: Q04DX003 (ip), vehicle: Klucel (hydroxypropylcellulose) (HPC)) was 2 of 6 and the survivor count [4] was 0 of 6.
In the case of `Oc1ccc(Nc2ncnc3cc(Cl)ccc23)cc1CN(c1ccccc1)c1ccccc1`, the survivor count (dose: 400.0 mg/kg/injection, schedule: Q04DX003 (ip), vehicle: saline) is reported as 2 of 6.
In the case of `CN(C)[C@@H]1C(=O)C(C(=O)NCNC2(C(=O)O)CCCC2)=C(O)[C@@]2(O)C(=O)C3=C(O)c4c(O)cccc4[C@@](C)(O)[C@H]3C[C@@H]12`, the T/C (dose: 500.0 mg/kg/injection, schedule: Q01DX015 (ip), vehicle: saline) is reported as 138 % of control, the T/C (dose: 500.0 mg/kg/injection, schedule: Q01DX Z (ip), vehicle: saline) is reported as 143 % of control and the survivor count (dose: 1000.0 mg/kg/injection, schedule: Q01DX015 (ip), vehicle: saline) is reported as 2 of 6.
In the case of `O=C(Nc1ccc(NC(=O)Nc2cccc(C3=NCCCN3)c2)cc1)Nc1ccc(C2=NCCCN2)cc1`, the T/C (dose: 5.0 mg/kg/injection, schedule: Q01DX Z (ip), vehicle: carboxymethylcellulose (CMC)) is reported as 125 % of control [5 of 6 alive], the T/C (dose: 7.5 mg/kg/injection, schedule: Q01DX Z (ip), vehicle: carboxymethylcellulose (CMC)) is reported as 137 % of control and the T/C (dose: 10.0 mg/kg/injection, schedule: Q01DX Z (ip), vehicle: carboxymethylcellulose (CMC)) is reported as 137 % of control. The survivor count (dose: 34.0 mg/kg/injection, schedule: Q01DX Z (ip), vehicle: carboxymethylcellulose (CMC)) was 0 of 6 and the survivor count (dose: 68.0 mg/kg/injection, schedule: Q01DX Z (ip), vehicle: carboxymethylcellulose (CMC)) was 0 of 6.
In the case of `O=NN(CCO)C(=O)Nc1c[nH]c(=O)[nH]c1=O`, the T/C (dose: 100.0 mg/kg/injection, schedule: Q01DX001 (ip), vehicle: carboxymethylcellulose (CMC)) is reported as 133 % of control, the T/C (dose: 200.0 mg/kg/injection, schedule: Q01DX001 (ip), vehicle: carboxymethylcellulose (CMC)) is reported as 133 % of control and the T/C [5] is reported as 146 % of control. For the same compound, the survivor count (dose: 500.0 mg/kg/injection, schedule: Q01DX001 (ip), vehicle: carboxymethylcellulose (CMC)) was 3 of 6, the survivor count (dose: 600.0 mg/kg/injection, schedule: Q01DX001 (ip), vehicle: carboxymethylcellulose (CMC)) was 3 of 6 and the survivor count (dose: 800.0 mg/kg/injection, schedule: Q01DX001 (ip), vehicle: carboxymethylcellulose (CMC)) was 0 of 6. For the same compound, the survivor count (dose: 1000.0 mg/kg/injection, schedule: Q01DX001 (ip), vehicle: carboxymethylcellulose (CMC)) was 1 of 6.
With `Cc1ccc[n+](CC(=O)CCc2ccc(C(=O)C[n+]3cccc(C)c3)cc2)c1` the survivor count (dose: 0.28 mg/kg/injection, schedule: Q04DX003 (ip), vehicle: saline) was 2 of 6, the survivor count [6] was 0 of 6 and the survivor count [7] was 0 of 6. The survivor count [8] was 0 of 6.
In the case of `Cc1c2cc3c(cc2cc2c4cc5c(cc4cc[n+]12)OCO5)OCO3` (tested in a mixture with another compound), the survivor count (dose: 25.0 mg/kg/injection, schedule: Q01DX009 (ip), vehicle: saline) is reported as 5 of 6.
With `Cc1ccc(S(=O)(=O)OC2CN3CCC2CC3)cc1` (configuration not stated) the survivor count (dose: 100.0 mg/kg/injection, schedule: Q01DX009 (ip), vehicle: saline) was 1 of 6 and the survivor count (dose: 200.0 mg/kg/injection, schedule: Q01DX009 (ip), vehicle: saline) was 0 of 6.
In the case of `CCCCc1ccncc1`, the survivor count [3] is reported as 1 of 4 and the survivor count [1] is reported as 0 of 4.
`CN(Cc1ccccc1O)C1CC2CCC1(C)C2(C)C` (configuration not stated) was tested, and the survivor count (dose: 200.0 mg/kg/injection, schedule: Q04DX002 (ip), vehicle: saline) was 0 of 3.
With `Nc1c(S(=O)(=O)O)cc(Nc2cccc(CO)c2)c2c1C(=O)c1ccccc1C2=O` the survivor count [1] was 1 of 6.
For `c1ccc2cc3c(cc2c1)Cn1c-3nc2ccccc21`, the survivor count (dose: 400.0 mg/kg/injection, schedule: Q01DX015 (ip), vehicle: saline) was 6 of 6 and the survivor count (dose: 800.0 mg/kg/injection, schedule: Q01DX015 (ip), vehicle: saline) was 5 of 6.
`CCN=C(NCC)Nc1ccc(NC(=O)c2ccc(C(=O)Nc3ccc(NC(=NCC)NCC)cc3)cc2)cc1` was tested, and the T/C (dose: 4.0 mg/kg/injection, schedule: Q01DX009 (ip), vehicle: carboxymethylcellulose (CMC)) was 127 % of control, the T/C (dose: 15.0 mg/kg/injection, schedule: Q01DX Z (ip), vehicle: water) was 136 and 142 % of control [5 of 6 alive] and the survivor count (dose: 30.0 mg/kg/injection, schedule: Q01DX Z (ip), vehicle: water) was 6 of 6. For the same compound, the survivor count (dose: 32.0 mg/kg/injection, schedule: Q01DX009 (ip), vehicle: carboxymethylcellulose (CMC)) was 6 of 6, the survivor count (dose: 60.0 mg/kg/injection, schedule: Q01DX Z (ip), vehicle: water) was 0 of 6 and the survivor count (dose: 112.0 mg/kg/injection, schedule: Q01DX009 (ip), vehicle: other) was 6 of 6. The survivor count (dose: 120.0 mg/kg/injection, schedule: Q01DX Z (ip), vehicle: water) was 0 of 6, the T/C (dose: 130.0 mg/kg/injection, schedule: Q01DX001 (ip), vehicle: carboxymethylcellulose (CMC)) was 136 % of control and the T/C (dose: 360.0 mg/kg/injection, schedule: Q01DX001 (ip), vehicle: other) was 149 % of control.
With `O=C(Nc1cccc(C(F)(F)F)c1)C(c1ccccc1)c1ccccc1` the survivor count [9] was 5 of 6.
`O=CO.[Tl]` was tested, and the survivor count [2] was 0 of 6, the survivor count [3] was 0 of 6 and the survivor count [1] was 0 of 6.
In the case of `COC(=O)C(CCl)NC(=O)c1ccccc1` (configuration not stated), the survivor count [4] is reported as 3 of 6.
For `CCc1c(C)[nH]c2c1C(=O)CCC2`, the survivor count [6] was 0 of 6, the survivor count [7] was 0 of 6 and the survivor count [8] was 0 of 6.
In the case of `OCCN1CCN(Cc2cccc3ccccc23)CC1`, the survivor count [3] is reported as 3 of 6 and the survivor count [1] is reported as 0 of 6.
With `ClCC1(CCl)OCCO1` the survivor count [5] was 0 of 6.
In the case of `O=NN(CCCl)C(=O)Nc1ccccc1C(=O)O`, the T/C (dose: 12.0 mg/kg/injection, schedule: Q01DX001 (ip), vehicle: carboxymethylcellulose (CMC)) is reported as 147 % of control.
With `O=C(O)c1cc(N2CCCC2)ccn1` the survivor count [1] was 0 of 6.
With `NC(=O)NC(CCl)NC(N)=O` the survivor count (dose: 100.0 mg/kg/injection, schedule: Q01DX009 (ip), vehicle: acetone) was 2 of 6, the survivor count (dose: 200.0 mg/kg/injection, schedule: Q01DX001 (ip), vehicle: acetone) was 0 of 6 and the survivor count (dose: 400.0 mg/kg/injection, schedule: Q01DX001 (ip), vehicle: acetone) was 0 of 6.
`Cc1nc2ccccc2nc1CBr` was tested, and the survivor count (dose: 100.0 mg/kg/injection, schedule: Q04DX003 (ip), vehicle: saline with Tween-80) was 6 of 6, the survivor count (dose: 200.0 mg/kg/injection, schedule: Q04DX003 (ip), vehicle: saline with Tween-80) was 3 of 6 and the survivor count (dose: 400.0 mg/kg/injection, schedule: Q04DX003 (ip), vehicle: saline with Tween-80) was 3 of 6.
With `Cc1ccc(C)c(NC(=O)Oc2ccc(Br)cc2Br)c1` the T/C [10] was 92, 95, 111 % of control, the survivor count [10] was 6 of 6 and the survivor count (dose: 200.0 mg/kg/injection, schedule: Q01DX009 (ip), vehicle: Klucel (hydroxypropylcellulose) (HPC)) was 6 of 6. For the same compound, the survivor count [9] was 1 of 6, 5 of 6, 6 of 6.
